In patent US20060121494A1:

Target: α-tubulin (human)
Experiment: anti-Id2 immunoprecipitation from TIG-3 lysates, Western blot

binding: no binding
B1: Id2 protein (endogenous, human cells) (protein)
chain: MKAFSPVRSVRKNSLSDHSLGISRSKTPVDDPMSLLYNMNDCYSKLKELVPSIPQNKKVSKMEILQHLIDYILDLQIALDSHPTIVSLHHQRPGQNQRSRTTPLTTLNTDISILSLQASEFPSELMSNDSKALCG

No constants are given. Whether binding was seen depends on the method and setting.
